Experimental data taken from patent US20110275569A1 (CONSIGLIO NAZIONALE DELLE RICERCHE, priority 2008, published 2011).

Assay: general procedure: Fmoc solid-phase peptide synthesis
Settings: whole synthesis

Substance	final HPLC purity [%]
H-TILLEIKNINAD-NH2	>95
TILAEIKNINAD	>95
YAIDTILAEIKNINAD	>95
YAIDTILLEIKNINAD	>95

Plain letter strings leave the end groups untold. The same purity stands for every peptide and may come from a single statement.
